Measurements: publication PMC5382271, “The conserved protein Seb1 drives transcription termination by binding RNA polymerase II and nascent RNA” (Nature Communications, 2017)

Target: T1, SUMO-RRM F445A (Schizosaccharomyces pombe) (UniProt Q9UTE3)
T1 sequence (looked up): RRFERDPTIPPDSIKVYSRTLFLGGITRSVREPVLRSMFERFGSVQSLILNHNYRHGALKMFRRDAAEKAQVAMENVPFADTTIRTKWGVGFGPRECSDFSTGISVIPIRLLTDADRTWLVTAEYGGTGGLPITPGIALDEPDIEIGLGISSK
Test: fluorescence anisotropy
Settings: 25 mM Tris-HCl pH 8.0, 100 mM NaCl, 2 mM MgCl2, 1 mM DTT, 16.7% glycerol, 0.1% IGEPAL, 0.1 mg/ml tRNA, 2.5% RNasin, 25 C, 40 nM FAM-RNA; recombinant protein; residues 388-540; protein details: N-terminal His6-SUMO; label: 5'-FAM (printed FAM-AUUAGUAAAA)

AUUAGUAAAA [FAM-AUUAGUAAAA RNA] gave a Kd of over 1 mM.

Protein sequences can lack the tags named with them.
